{"sequences": {"note": "Protein sequences, listed by entry. Tags and fused reporters are not part of them. Lines headed by an entry give the natural chain unless they say otherwise; changes in a name come on top.", "UniProt Q96GX5": "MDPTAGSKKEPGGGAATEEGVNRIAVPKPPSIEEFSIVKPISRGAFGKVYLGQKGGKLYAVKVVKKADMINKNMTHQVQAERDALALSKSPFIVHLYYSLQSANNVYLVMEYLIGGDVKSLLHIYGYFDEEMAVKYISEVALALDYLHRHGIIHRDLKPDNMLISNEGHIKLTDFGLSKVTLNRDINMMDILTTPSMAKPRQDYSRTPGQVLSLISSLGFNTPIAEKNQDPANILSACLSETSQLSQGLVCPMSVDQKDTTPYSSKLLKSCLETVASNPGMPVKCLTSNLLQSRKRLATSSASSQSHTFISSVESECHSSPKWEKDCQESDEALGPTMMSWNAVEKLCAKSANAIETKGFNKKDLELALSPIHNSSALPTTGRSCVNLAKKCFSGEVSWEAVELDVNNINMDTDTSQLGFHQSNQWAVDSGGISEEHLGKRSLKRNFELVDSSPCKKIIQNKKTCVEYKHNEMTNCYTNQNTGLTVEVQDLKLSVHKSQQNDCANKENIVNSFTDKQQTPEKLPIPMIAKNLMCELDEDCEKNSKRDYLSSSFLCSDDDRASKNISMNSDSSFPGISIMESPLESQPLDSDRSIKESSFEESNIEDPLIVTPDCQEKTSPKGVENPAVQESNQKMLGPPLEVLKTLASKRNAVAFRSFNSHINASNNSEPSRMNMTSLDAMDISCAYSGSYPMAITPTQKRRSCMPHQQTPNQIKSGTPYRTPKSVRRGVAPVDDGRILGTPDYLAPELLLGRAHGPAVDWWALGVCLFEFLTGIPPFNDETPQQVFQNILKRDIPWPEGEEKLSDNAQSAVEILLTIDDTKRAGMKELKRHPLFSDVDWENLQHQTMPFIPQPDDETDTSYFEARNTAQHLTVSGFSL", "UniProt Q9NT99": "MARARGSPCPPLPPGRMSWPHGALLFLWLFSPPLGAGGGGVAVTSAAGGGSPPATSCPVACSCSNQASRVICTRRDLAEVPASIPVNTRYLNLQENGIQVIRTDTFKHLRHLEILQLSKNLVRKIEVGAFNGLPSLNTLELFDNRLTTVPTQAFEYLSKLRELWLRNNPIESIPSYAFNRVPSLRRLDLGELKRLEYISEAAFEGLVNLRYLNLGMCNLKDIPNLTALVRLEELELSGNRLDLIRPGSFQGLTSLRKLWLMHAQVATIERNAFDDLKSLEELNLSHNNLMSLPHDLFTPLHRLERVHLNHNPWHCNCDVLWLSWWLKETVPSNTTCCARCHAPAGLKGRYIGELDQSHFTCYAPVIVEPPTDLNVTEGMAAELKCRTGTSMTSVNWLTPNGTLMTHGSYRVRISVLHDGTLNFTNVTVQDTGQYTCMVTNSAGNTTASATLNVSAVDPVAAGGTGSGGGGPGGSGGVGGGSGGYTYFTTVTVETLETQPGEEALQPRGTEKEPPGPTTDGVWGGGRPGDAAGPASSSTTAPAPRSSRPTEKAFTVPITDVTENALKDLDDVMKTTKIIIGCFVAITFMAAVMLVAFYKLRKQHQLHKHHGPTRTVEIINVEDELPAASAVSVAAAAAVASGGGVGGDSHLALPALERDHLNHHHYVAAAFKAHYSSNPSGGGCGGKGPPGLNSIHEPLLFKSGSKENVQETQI", "UniProt P42679": "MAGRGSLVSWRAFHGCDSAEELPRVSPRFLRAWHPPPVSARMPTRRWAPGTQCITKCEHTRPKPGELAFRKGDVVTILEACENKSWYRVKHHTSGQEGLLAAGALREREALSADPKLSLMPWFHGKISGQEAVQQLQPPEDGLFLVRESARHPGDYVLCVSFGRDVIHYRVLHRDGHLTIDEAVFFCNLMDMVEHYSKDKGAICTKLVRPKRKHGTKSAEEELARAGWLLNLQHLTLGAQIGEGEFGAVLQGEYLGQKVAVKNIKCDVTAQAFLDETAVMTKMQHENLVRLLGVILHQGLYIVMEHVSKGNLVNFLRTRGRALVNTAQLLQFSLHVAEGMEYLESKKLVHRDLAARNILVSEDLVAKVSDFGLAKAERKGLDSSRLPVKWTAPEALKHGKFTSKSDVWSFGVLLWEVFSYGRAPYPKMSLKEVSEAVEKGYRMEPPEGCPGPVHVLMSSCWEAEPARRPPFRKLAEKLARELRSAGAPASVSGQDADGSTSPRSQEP", "UniProt P52564": "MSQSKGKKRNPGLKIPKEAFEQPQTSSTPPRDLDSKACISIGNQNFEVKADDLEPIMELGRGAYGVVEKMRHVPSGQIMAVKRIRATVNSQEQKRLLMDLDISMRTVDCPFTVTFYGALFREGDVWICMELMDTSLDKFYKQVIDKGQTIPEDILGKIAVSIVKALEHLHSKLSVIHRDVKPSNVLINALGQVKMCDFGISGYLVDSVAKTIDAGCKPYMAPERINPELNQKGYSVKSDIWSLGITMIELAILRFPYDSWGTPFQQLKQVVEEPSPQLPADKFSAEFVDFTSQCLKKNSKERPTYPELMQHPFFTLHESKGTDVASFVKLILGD", "UniProt Q13257, whole entry, looked up": "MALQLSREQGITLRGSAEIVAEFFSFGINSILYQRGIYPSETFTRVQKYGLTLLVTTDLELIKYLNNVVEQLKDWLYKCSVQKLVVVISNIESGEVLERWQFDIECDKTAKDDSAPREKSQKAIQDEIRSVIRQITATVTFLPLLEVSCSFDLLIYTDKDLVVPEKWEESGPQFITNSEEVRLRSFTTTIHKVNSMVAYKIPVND", "UniProt Q9Y6R4": "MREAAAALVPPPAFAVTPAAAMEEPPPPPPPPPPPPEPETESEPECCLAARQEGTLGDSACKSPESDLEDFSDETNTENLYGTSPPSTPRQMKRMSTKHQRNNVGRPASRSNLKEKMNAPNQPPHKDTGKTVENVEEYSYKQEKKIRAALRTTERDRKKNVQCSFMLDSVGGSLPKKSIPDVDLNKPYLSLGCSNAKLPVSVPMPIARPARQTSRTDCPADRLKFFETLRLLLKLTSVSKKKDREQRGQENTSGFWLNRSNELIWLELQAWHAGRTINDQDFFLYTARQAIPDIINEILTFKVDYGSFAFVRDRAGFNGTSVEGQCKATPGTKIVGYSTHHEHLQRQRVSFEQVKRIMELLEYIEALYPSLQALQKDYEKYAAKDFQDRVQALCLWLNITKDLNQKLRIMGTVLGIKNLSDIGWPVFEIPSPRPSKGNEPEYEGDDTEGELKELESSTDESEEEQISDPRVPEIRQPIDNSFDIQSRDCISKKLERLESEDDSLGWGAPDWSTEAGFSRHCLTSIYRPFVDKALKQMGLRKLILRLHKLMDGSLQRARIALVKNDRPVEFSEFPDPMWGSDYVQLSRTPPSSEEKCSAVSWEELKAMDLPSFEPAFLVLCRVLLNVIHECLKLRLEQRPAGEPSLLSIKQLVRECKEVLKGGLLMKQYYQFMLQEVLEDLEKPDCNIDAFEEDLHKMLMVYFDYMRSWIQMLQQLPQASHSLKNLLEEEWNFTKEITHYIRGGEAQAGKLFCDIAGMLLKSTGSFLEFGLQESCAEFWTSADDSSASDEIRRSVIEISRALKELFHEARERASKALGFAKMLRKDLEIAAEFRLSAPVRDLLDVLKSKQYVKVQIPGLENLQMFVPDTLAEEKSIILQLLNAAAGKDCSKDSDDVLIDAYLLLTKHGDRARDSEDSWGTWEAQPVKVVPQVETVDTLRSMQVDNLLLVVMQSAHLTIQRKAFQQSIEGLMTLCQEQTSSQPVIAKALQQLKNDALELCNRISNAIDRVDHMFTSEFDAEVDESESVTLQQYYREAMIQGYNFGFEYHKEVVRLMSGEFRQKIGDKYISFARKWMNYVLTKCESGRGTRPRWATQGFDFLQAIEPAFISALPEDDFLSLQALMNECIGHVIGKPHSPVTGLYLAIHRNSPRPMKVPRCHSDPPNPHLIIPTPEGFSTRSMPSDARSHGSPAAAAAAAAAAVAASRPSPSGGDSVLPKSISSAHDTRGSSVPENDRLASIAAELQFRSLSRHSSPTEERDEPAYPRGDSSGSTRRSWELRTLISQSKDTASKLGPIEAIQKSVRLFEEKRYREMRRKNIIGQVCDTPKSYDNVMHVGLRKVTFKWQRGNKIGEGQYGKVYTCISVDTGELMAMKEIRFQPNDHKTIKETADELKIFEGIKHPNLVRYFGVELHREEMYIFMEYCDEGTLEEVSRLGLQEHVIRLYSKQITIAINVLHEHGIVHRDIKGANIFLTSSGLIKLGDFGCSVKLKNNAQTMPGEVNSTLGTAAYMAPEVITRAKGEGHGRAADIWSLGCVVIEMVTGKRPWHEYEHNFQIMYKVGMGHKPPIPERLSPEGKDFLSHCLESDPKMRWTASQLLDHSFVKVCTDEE", "UniProt Q86V48": "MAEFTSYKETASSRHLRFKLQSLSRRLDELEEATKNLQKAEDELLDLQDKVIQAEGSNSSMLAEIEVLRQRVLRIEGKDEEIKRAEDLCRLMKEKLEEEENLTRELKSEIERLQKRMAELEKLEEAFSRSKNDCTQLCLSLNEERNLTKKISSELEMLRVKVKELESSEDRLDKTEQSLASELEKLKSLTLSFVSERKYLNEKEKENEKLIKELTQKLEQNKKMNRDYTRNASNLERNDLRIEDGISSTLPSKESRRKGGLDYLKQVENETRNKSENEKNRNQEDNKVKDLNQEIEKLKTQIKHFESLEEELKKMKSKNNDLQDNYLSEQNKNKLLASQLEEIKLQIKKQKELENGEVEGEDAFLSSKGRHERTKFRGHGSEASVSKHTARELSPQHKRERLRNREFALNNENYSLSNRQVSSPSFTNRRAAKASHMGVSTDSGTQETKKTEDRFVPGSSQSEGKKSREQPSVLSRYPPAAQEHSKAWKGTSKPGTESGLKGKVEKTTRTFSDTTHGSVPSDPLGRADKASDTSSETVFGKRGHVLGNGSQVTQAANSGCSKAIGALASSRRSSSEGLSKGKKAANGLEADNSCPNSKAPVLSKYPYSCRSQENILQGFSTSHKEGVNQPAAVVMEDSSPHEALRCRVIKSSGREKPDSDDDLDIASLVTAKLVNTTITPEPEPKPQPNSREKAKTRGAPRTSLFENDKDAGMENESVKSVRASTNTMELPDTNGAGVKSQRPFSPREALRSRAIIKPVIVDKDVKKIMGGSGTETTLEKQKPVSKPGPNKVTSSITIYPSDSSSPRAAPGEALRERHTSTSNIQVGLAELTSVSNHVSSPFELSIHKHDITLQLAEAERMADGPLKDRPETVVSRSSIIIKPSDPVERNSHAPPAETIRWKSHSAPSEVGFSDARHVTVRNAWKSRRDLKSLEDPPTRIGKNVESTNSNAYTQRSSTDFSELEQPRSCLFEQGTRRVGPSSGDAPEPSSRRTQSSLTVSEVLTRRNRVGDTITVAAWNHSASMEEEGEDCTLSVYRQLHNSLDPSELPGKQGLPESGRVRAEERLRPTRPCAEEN", "UniProt P27448": "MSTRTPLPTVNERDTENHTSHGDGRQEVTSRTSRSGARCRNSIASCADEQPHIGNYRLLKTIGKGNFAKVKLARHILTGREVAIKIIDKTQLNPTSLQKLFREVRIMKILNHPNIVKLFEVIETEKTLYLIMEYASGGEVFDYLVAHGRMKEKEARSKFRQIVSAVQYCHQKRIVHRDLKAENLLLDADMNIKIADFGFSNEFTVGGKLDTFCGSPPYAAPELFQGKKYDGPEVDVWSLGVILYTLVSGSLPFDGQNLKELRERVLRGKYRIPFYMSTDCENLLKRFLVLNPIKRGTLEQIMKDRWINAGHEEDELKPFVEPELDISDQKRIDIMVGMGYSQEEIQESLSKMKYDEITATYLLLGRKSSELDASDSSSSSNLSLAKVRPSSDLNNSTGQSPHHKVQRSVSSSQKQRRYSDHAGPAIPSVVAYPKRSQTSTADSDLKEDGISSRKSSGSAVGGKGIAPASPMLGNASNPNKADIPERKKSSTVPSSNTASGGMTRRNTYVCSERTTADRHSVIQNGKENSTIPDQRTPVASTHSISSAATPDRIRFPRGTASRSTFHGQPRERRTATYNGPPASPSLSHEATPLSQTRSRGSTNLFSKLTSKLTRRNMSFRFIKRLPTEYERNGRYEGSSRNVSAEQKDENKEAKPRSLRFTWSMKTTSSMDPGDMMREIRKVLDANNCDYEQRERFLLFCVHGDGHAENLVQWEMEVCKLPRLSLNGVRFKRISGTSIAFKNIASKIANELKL", "UniProt P07948": "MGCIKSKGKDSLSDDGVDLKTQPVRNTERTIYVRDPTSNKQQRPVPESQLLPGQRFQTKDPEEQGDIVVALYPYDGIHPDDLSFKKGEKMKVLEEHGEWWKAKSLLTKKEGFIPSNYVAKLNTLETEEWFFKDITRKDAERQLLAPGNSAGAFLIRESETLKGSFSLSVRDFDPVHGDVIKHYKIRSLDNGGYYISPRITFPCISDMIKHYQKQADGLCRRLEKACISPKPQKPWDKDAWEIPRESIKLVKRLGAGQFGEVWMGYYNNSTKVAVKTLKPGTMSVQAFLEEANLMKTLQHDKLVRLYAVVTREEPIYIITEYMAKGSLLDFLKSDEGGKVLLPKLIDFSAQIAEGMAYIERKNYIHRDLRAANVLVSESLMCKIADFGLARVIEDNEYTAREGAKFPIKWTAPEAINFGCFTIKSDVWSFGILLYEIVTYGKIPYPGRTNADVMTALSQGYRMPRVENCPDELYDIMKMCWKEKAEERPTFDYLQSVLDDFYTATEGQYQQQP"}, "source": "the supplement of paper PMC11732987", "about": "“Enantioselective OTUD7B fragment discovery through chemoproteomics screening and high-throughput optimisation” (Communications Chemistry, 2025)", "note": "The list shows a part of the results. The data scatter; read single values as rough.", "data": [{"compound": "ClCC(=O)N[C@H]1CCCc2ccccc12", "assay": "log2 mean competition ratio of IA-DTB cysteine labelling (DMSO/compound) (log2 ratio); higher = stronger cysteine engagement by compound", "conditions": "50 µM; treatment time: 4 h; cell line lysate: HEK293T", "procedure": "(§1)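 IA-DTB competitive cysteine chemoproteomics in HEK293T RIPA lysate. Lysates were treated with compound 29 or 30 at 50 or 200 µM for 4 h, then IA-DTB (500 µM, 1 h), trypsin-digested, NeutrAvidin-enriched and analysed by diaPASEF. Competition ratio = intensity DMSO / intensity compound (n=4 treated, n=64 DMSO); binding: mean log2 CR ≥ 1 and p ≤ 0.05 plus QC filters. Target is the cysteine site.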", "values": [{"target": "MARK4 C49 (UniProt Q96L34)", "log2 mean competition ratio": -0.4}, {"target": "MASTL C455 (UniProt Q96GX5)", "log2 mean competition ratio": 0.21}, {"target": "LRRC4B C683 (UniProt Q9NT99)", "log2 mean competition ratio": 0.198}, {"target": "MARS1 C333", "log2 mean competition ratio": 0.0144}, {"target": "MATK C53 (UniProt P42679)", "log2 mean competition ratio": -0.127}, {"target": "MAP2K6 C294 (UniProt P52564)", "log2 mean competition ratio": 0.123}, {"target": "MCF2L C580", "log2 mean competition ratio": -0.169}, {"target": "LTN1 C981 (UniProt O94822)", "log2 mean competition ratio": -0.162}, {"target": "LTBR C418 (UniProt P36941)", "log2 mean competition ratio": -0.336}, {"target": "MAD2L1 C106 (UniProt Q13257)", "log2 mean competition ratio": -0.116}, {"target": "MAP3K4 C998 (UniProt Q9Y6R4)", "log2 mean competition ratio": -0.172}, {"target": "MAU2 C252 (UniProt Q9Y6X3)", "log2 mean competition ratio": 0.411}, {"target": "MAP3K20 C231 (UniProt Q9NYL2)", "log2 mean competition ratio": 0.443}, {"target": "LUZP1 C969 (UniProt Q86V48)", "log2 mean competition ratio": 0.292}, {"target": "MARK3 C510 (UniProt P27448)", "log2 mean competition ratio": 0.111}, {"target": "LYN C468 (UniProt P07948)", "log2 mean competition ratio": -0.163}, {"target": "MACROD1 C116 (UniProt Q9BQ69)", "log2 mean competition ratio": 0.104}, {"target": "MAPRE1 C228 (UniProt Q15691)", "log2 mean competition ratio": -0.402}, {"target": "MAF C46", "log2 mean competition ratio": -0.0664}, {"target": "LRSAM1 C418 (UniProt Q6UWE0)", "log2 mean competition ratio": 0.107}]}, {"compound": "ClCC(=O)N[C@H]1CCCc2ccccc12", "assay": "log2 mean competition ratio of IA-DTB cysteine labelling (DMSO/compound) (log2 ratio); higher = stronger cysteine engagement by compound", "conditions": "200 µM; treatment time: 4 h; cell line lysate: HEK293T", "procedure": "as §1", "values": [{"target": "MARK4 C49 (UniProt Q96L34)", "log2 mean competition ratio": 0.0737}, {"target": "MASTL C455 (UniProt Q96GX5)", "log2 mean competition ratio": 0.0556}, {"target": "LRRC4B C683 (UniProt Q9NT99)", "log2 mean competition ratio": 0.0665}, {"target": "MARS1 C333", "log2 mean competition ratio": -0.34}, {"target": "MATK C53 (UniProt P42679)", "log2 mean competition ratio": -0.201}, {"target": "MAP2K6 C294 (UniProt P52564)", "log2 mean competition ratio": -0.282}, {"target": "MCF2L C580", "log2 mean competition ratio": -0.0561}, {"target": "LTN1 C981 (UniProt O94822)", "log2 mean competition ratio": 0.191}, {"target": "LTBR C418 (UniProt P36941)", "log2 mean competition ratio": -0.31}, {"target": "MAD2L1 C106 (UniProt Q13257)", "log2 mean competition ratio": 0.436}, {"target": "MAP3K4 C998 (UniProt Q9Y6R4)", "log2 mean competition ratio": -0.0715}, {"target": "MAU2 C252 (UniProt Q9Y6X3)", "log2 mean competition ratio": 0.121}, {"target": "MAP3K20 C231 (UniProt Q9NYL2)", "log2 mean competition ratio": -0.253}, {"target": "LUZP1 C969 (UniProt Q86V48)", "log2 mean competition ratio": 0.228}, {"target": "MARK3 C510 (UniProt P27448)", "log2 mean competition ratio": 0.046}, {"target": "LYN C468 (UniProt P07948)", "log2 mean competition ratio": 0.12}, {"target": "MACROD1 C116 (UniProt Q9BQ69)", "log2 mean competition ratio": -0.172}, {"target": "MAPRE1 C228 (UniProt Q15691)", "log2 mean competition ratio": 0.163}, {"target": "MAF C46", "log2 mean competition ratio": 0.15}, {"target": "LRSAM1 C418 (UniProt Q6UWE0)", "log2 mean competition ratio": 0.415}]}]}
